Source: paper doi:10.1101/2021.10.01.462752
These are yes or no findings as the source states them, for the method shown. In cells and extracts the contact can be indirect. Some results given as binding are weak or reduced against the parent protein; the word gives no strength. Where a sequence is shown, tags or fusion partners need not be part of it. Each block holds one molecule with its values, some of them ahead of it.

Amino acid sequences for entries named in this document (tags omitted).
UniProt Q9NQC1: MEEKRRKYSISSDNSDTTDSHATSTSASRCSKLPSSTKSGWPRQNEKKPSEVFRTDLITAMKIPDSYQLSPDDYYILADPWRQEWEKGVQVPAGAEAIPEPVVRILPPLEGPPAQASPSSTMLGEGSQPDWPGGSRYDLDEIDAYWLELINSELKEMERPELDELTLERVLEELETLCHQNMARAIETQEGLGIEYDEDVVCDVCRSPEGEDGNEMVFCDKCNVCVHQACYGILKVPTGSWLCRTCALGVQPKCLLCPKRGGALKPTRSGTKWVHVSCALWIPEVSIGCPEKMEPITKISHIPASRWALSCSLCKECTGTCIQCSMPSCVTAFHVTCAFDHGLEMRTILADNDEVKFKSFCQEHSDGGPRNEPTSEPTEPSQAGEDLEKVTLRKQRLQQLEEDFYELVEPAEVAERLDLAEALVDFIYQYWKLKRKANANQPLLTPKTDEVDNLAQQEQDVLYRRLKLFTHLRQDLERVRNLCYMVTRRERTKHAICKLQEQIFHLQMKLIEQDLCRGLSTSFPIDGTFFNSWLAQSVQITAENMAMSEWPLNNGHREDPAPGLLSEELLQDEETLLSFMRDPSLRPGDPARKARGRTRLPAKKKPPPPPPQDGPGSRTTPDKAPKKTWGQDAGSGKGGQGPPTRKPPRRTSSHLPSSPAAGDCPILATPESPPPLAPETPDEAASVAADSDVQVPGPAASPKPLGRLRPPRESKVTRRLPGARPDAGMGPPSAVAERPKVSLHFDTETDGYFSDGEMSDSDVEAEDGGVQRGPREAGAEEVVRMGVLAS

Assays:
[1] = biological target: FLAG-tagged JADE2 (human) (UniProt Q9NQC1); assay: co-IP
[2] = biological target: T1, FLAG-tagged JADE3 (human) (UniProt Q92613); assay: co-IP
T1 sequence: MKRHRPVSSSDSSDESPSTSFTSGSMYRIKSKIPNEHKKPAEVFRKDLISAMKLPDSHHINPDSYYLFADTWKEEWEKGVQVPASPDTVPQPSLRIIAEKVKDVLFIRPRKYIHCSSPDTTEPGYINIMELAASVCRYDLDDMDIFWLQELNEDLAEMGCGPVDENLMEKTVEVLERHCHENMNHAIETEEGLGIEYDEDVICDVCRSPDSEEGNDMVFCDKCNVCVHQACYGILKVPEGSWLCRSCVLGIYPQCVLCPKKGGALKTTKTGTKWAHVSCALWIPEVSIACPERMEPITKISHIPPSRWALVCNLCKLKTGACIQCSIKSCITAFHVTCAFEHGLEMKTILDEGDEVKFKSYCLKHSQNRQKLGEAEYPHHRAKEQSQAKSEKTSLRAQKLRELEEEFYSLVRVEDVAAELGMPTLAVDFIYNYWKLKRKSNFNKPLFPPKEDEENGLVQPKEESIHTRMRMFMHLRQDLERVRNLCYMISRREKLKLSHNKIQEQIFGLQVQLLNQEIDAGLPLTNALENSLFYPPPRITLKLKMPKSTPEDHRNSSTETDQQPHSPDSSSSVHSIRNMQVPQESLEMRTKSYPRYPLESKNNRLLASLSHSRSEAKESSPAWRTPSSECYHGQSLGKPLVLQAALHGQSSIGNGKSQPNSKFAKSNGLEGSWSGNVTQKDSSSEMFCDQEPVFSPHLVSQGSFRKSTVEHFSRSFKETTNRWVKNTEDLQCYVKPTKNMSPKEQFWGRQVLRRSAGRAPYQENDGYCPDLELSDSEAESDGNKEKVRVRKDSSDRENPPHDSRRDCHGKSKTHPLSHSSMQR

binding [1]: binds
binding [2]: binds
Molecule: V5-tagged JADE2 (from UniProt Q9NQC1 1-790)

binding [1]: binds
binding [2]: binds
B1: V5-tagged NPHP4 (protein, UniProt O75161 1-1426)
chain: MNDWHRIFTQNVLVPPHPQRARQPWKESTAFQCVLKWLDGPVIRQGVLEVLSEVECHLRVSFFDVTYRHFFGRTWKTTVKPTKRPPSRIVFNEPLYFHTSLNHPHIVAVVEVVAEGKKRDGSLQTLSCGFGILRIFSNQPDSPISASQDKRLRLYHGTPRALLHPLLQDPAEQNRHMTLIENCSLQYTLKPHPALEPAFHLLPENLLVSGLQQIPGLLPAHGESGDALRKPRLQKPITGHLDDLFFTLYPSLEKFEEELLELHVQDHFQEGCGPLDGGALEILERRLRVGVHNGLGFVQRPQVVVLVPEMDVALTRSASFSRKVVSSSKTSSGSQALVLRSRLRLPEMVGHPAFAVIFQLEYVFSSPAGVDGNAASVTSLSNLACMHMVRWAVWNPLLEADSGRVTLPLQGGIQPNPSHCLVYKVPSASMSSEEVKQVESGTLRFQFSLGSEEHLDAPTEPVSGPKVERRPSRKPPTSPSSPPAPVPRVLAAPQNSPVGPGLSISQLAASPRSPTQHCLARPTSQLPHGSQASPAQAQEFPLEAGISHLEADLSQTSLVLETSIAEQLQELPFTPLHAPIVVGTQTRSSAGQPSRASMVLLQSSGFPEILDANKQPAEAVSATEPVTFNPQKEESDCLQSNEMVLQFLAFSRVAQDCRGTSWPKTVYFTFQFYRFPPATTPRLQLVQLDEAGQPSSGALTHILVPVSRDGTFDAGSPGFQLRYMVGPGFLKPGERRCFARYLAVQTLQIDVWDGDSLLLIGSAAVQMKHLLRQGRPAVQASHELEVVATEYEQDNMVVSGDMLGFGRVKPIGVHSVVKGRLHLTLANVGHPCEQKVRGCSTLPPSRSRVISNDGASRFSGGSLLTTGSSRRKHVVQAQKLADVDSELAAMLLTHARQGKGPQDVSRESDATRRRKLERMRSVRLQEAGGDLGRRGTSVLAQQSVRTQHLRDLQVIAAYRERTKAESIASLLSLAITTEHTLHATLGVAEFFEFVLKNPHNTQHTVTVEIDNPELSVIVDSQEWRDFKGAAGLHTPVEEDMFHLRGSLAPQLYLRPHETAHVPFKFQSFSAGQLAMVQASPGLSNEKGMDAVSPWKSSAVPTKHAKVLFRASGGKPIAVLCLTVELQPHVVDQVFRFYHPELSFLKKAIRLPPWHTFPGAPVGMLGEDPPVHVRCSDPNVICETQNVGPGEPRDIFLKVASGPSPEIKDFFVIIYSDRWLATPTQTWQVYLHSLQRVDVSCVAGQLTRLSLVLRGTQTVRKVRAFTSHPQELKTDPKGVFVLPPRGVQDLHVGVRPLRAGSRFVHLNLVDVDCHQLVASWLVCLCCRQPLISKAFEIMLAAGEGKGVNKRITYTNPYPSRRTFHLHSDHPELLRFREDSFQVGGGETYTIGLQFAPSQRVGEEEILIYINDHEDKNEEAFCVKVIYQ
